{"source": "patent US20100093064A1", "about": "“Metagenomic Functional Selection” (PRESIDENT AND FELLOWS OF HARVARD COLLEGE, priority 2008, published 2010)"}
{"tested_on": "soil bacteria", "format": "cell-based", "conditions": "antibiotic as sole carbon source at 1 g/L, 11 soils"}
{"smiles": "CC1(C)S[C@@H]2[C@H](NC(=O)C(C(=O)O)c3ccccc3)C(=O)N2[C@H]1C(=O)O", "note": "(stereo partly shown) [carbenicillin]", "Soils yielding clonal isolates able to subsist on the antibiotic": "all the soils tested"}
{"smiles": "Cc1onc(-c2c(Cl)cccc2Cl)c1C(=O)N[C@@H]1C(=O)N2[C@@H]1SC(C)(C)[C@@H]2C(=O)O", "note": "[dicloxacillin]", "Soils yielding clonal isolates able to subsist on the antibiotic": "9 out of 11 soils"}
{"smiles": "CCn1cc(C(=O)O)c(=O)c2ccc(C)nc21", "note": "[nalidixic acid]", "Soils yielding clonal isolates able to subsist on the antibiotic": "a majority of the soils"}
{"smiles": "CC1(C)S[C@@H]2[C@H](NC(=O)Cc3ccccc3)C(=O)N2[C@H]1C(=O)O", "note": "[penicillin, penicillin G]", "Soils yielding clonal isolates able to subsist on the antibiotic": "all the soils tested"}
